Data reported in the supplement of paper PMC9233669.
This sample is rich in variants without activity.

Tests used:
biotinyl-Val-oxazolone = assay: self-aminoacylation, catalytic enhancement (BVO) (fold over background); higher = more active; k-Seq, kA / k0A0; sequences stand for … in GGGAAUGGAUCCACAUCUACGAAUUC…UUCACUGCAGACUUGACGAAGCUG
Summary of the method: (§1)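 Working in 50 μL HEPES/NaCl/KCl/MgCl2/CaCl2 buffer with 5% acetonitrile at pH 6.9–7.0, mutagenized RNA pools (0.43 μM; 21-nt variable region) were reacted with 2–1250 μM of each biotinyl-aminoacyl-oxazolone for 90 minutes at room temperature. Streptavidin capture followed, with quantification by triplicate qPCR and Illumina sequencing. Catalytic enhancement is reported as median kA over the uncatalyzed rate, the low-activity peak of a bimodal Gaussian fit to the data.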

biotinyl-Ile-oxazolone = assay: self-aminoacylation, catalytic enhancement (BIO) (fold over background); higher = more active; k-Seq, kA / k0A0; sequences stand for … in GGGAAUGGAUCCACAUCUACGAAUUC…UUCACUGCAGACUUGACGAAGCUG
Summary of the method: as §1

biotinyl-Phe-oxazolone = assay: self-aminoacylation, catalytic enhancement (BFO) (fold over background); higher = more active; k-Seq, kA / k0A0; sequences stand for … in GGGAAUGGAUCCACAUCUACGAAUUC…UUCACUGCAGACUUGACGAAGCUG
Summary of the method: as §1

biotinyl-Leu-oxazolone = assay: self-aminoacylation, catalytic enhancement (BLO) (fold over background); higher = more active; k-Seq, kA / k0A0; sequences stand for … in GGGAAUGGAUCCACAUCUACGAAUUC…UUCACUGCAGACUUGACGAAGCUG
Summary of the method: as §1

biotinyl-Trp-oxazolone = assay: self-aminoacylation, catalytic enhancement (BWO) (fold over background); higher = more active; k-Seq, kA / k0A0; sequences stand for … in GGGAAUGGAUCCACAUCUACGAAUUC…UUCACUGCAGACUUGACGAAGCUG
Summary of the method: as §1

biotinyl-Met-oxazolone = assay: self-aminoacylation, catalytic enhancement (BMO) (fold over background); higher = more active; k-Seq, kA / k0A0; sequences stand for … in GGGAAUGGAUCCACAUCUACGAAUUC…UUCACUGCAGACUUGACGAAGCUG
Summary of the method: as §1

Sequence	self-aminoacylation (biotinyl-Val-oxazolone)	self-aminoacylation (biotinyl-Ile-oxazolone)	self-aminoacylation (biotinyl-Phe-oxazolone)	self-aminoacylation (biotinyl-Leu-oxazolone)	self-aminoacylation (biotinyl-Trp-oxazolone)	self-aminoacylation (biotinyl-Met-oxazolone)
CCACACUCAAAGCAAUCGGUC [Fam1B.1 aminoacylation ribozyme variant]	1	1.14	0.917	0.706	1.04	0.868
CCACACUCCAAGCAAUCGAUC [Fam1B.1 aminoacylation ribozyme variant]	0.843	0.788	1.27	0.575	0.365	0.495
CCACACUCCAAGCAAUCUGUC [Fam1B.1 aminoacylation ribozyme variant]	0.749	0.617	0.541	0.44	0.384	0.426
CCACACUUAAAGAAAUCGGUC [Fam1B.1 aminoacylation ribozyme variant]	0.785	0.754	0.562	0.749	0.679	0.734
CCACACUUAAAGCAAUCGCUC [Fam1B.1 aminoacylation ribozyme variant]	1.1	1.31	0.744	1.38	0.677	1.02
CCACACUUAAAGCAAUCGGUA [Fam1B.1 aminoacylation ribozyme variant]	0.803	0.824	1.18	0.952	0.581	1.07
CCACACUUAAAGCAAUCGUUC [Fam1B.1 aminoacylation ribozyme variant]	0.797	0.718	0.683	0.518	0.471	0.499
CCACACUUAGAGCAAUCGGUC [Fam1B.1 aminoacylation ribozyme variant]	1.05	1.01	1.07	0.837	0.71	0.855
CCACACUUCAAACAAUCUGUC [Fam1B.1 aminoacylation ribozyme variant]	0.602	0.417	0.813	0.321	0.467	0.364
CCACACUUCAAACACUCGGUC [Fam1B.1 aminoacylation ribozyme variant]	1.42	1.33	1.16	1.33	1.16	1.09
CCACACUUCAACCAACCGGUC [Fam1B.1 aminoacylation ribozyme variant]	1.07	1.08	0.57	1.03	1.69	0.626
CCACACUUCAAGAAAUCAGUC [Fam1B.1 aminoacylation ribozyme variant]	0.678	0.727	4.56	0.561	1.55	0.443
CCACACUUCAAGAAAUCCGUC [Fam1B.1 aminoacylation ribozyme variant]	0.817	0.778	0.659	0.688	0.651	0.563
CCACACUUCAAGAGAUCGGUC [Fam1B.1 aminoacylation ribozyme variant]	0.934	1.08	0.813	0.98	0.942	0.931
CCACACUUCAAGCAAACGGAC [Fam1B.1 aminoacylation ribozyme variant]	0.763	0.593	0.936	0.472	0.422	0.471
CCACACUUCAAGCAAACGGUA [Fam1B.1 aminoacylation ribozyme variant]	1.07	1.02	0.986	1.23	1.16	1.01
CCACACUUCAAGCAACCUGUC [Fam1B.1 aminoacylation ribozyme variant]	0.62	0.428	0.804	0.347	0.506	0.397
CCACACUUCAAGCAAGCGCUC [Fam1B.1 aminoacylation ribozyme variant]	1.3	0.976	0.847	1.1	0.756	0.744
CCACACUUCAAGCAAGCGGGC [Fam1B.1 aminoacylation ribozyme variant]	2.29	1.61	6.38	1.59	2.67	2.41
CCACACUUCAAGCAAGCGUUC [Fam1B.1 aminoacylation ribozyme variant]	0.728	0.689	0.905	0.516	0.492	0.454
CCACACUUCAAGCAAUAAGUC [Fam1B.1 aminoacylation ribozyme variant]	0.733	0.692	1.14	0.557	0.404	0.53
CCACACUUCAAGCAAUAGGUU [Fam1B.1 aminoacylation ribozyme variant]	1.05	1.05	0.838	0.859	0.617	1
CCACACUUCAAGCAAUCAGAC [Fam1B.1 aminoacylation ribozyme variant]	0.865	0.885	1.38	0.654	0.511	0.715
CCACACUUCAAGCAAUCGAGC [Fam1B.1 aminoacylation ribozyme variant]	0.76	0.549	0.688	0.638	0.527	0.491
CCACACUUCAAGCAAUCGGGC [Fam1B.1 aminoacylation ribozyme variant]	1.55	1.27	1.23	1.2	1.28	1.21
CCACACUUCAAGCAAUCGUCC [Fam1B.1 aminoacylation ribozyme variant]	0.652	0.54	1.57	0.518	1.06	0.412

Sequence	self-aminoacylation (biotinyl-Val-oxazolone)	self-aminoacylation (biotinyl-Ile-oxazolone)	self-aminoacylation (biotinyl-Phe-oxazolone)	self-aminoacylation (biotinyl-Leu-oxazolone)	self-aminoacylation (biotinyl-Trp-oxazolone)	self-aminoacylation (biotinyl-Met-oxazolone)
CCACACUUCAAGCAAUUAGUC [Fam1B.1 aminoacylation ribozyme variant]	0.642	0.647	1.1	0.556	0.633	0.388
CCACACUUCAAGCAAUUGCUC [Fam1B.1 aminoacylation ribozyme variant]	1.06	0.938	0.673	0.966	0.936	0.87
CCACACUUCAAGCAAUUGUUC [Fam1B.1 aminoacylation ribozyme variant]	0.549	0.676	1.03	0.479	0.692	0.644
CCACACUUCAAGCACUCAGUC [Fam1B.1 aminoacylation ribozyme variant]	0.816	0.704	1.2	0.725	0.587	0.686
CCACACUUCAAGCACUCGUUC [Fam1B.1 aminoacylation ribozyme variant]	0.995	0.793	0.914	0.587	0.582	0.671
CCACACUUCAAGCAGUCGAUC [Fam1B.1 aminoacylation ribozyme variant]	0.64	0.519	1.02	0.511	0.431	0.368
CCACACUUCAAGCAGUCGGUU [Fam1B.1 aminoacylation ribozyme variant]	1.63	1.34	0.656	1.1	1.23	1.53
CCACACUUCAAGCAGUGGGUC [Fam1B.1 aminoacylation ribozyme variant]	1.22	0.786	0.562	0.845	0.775	0.96
CCACACUUCAAGCAUUCGGUA [Fam1B.1 aminoacylation ribozyme variant]	2.44	1.95	1.39	1.7	1.97	1.76
CCACACUUCAAGCAUUGGGUC [Fam1B.1 aminoacylation ribozyme variant]	1.4	1.04	0.918	0.83	0.956	1.03
CCACACUUCAAGCCAUCAGUC [Fam1B.1 aminoacylation ribozyme variant]	0.769	0.81	1.07	0.892	0.625	0.695
CCACACUUCAAGCCAUCGAUC [Fam1B.1 aminoacylation ribozyme variant]	0.639	0.704	1.08	0.56	0.6	0.442
CCACACUUCAAGCCAUCGGAC [Fam1B.1 aminoacylation ribozyme variant]	1.22	1.32	0.873	1.23	1.03	1.26
CCACACUUCAAGCCAUCGGUA [Fam1B.1 aminoacylation ribozyme variant]	1.4	1.53	0.774	1.88	1.05	1.7
CCACACUUCAAGCCUUCGGUC [Fam1B.1 aminoacylation ribozyme variant]	1.54	1.4	1.95	1.4	1.17	1.34
CCACACUUCAAGCGAUCGAUC [Fam1B.1 aminoacylation ribozyme variant]	0.634	0.533	0.936	0.461	0.362	0.469
CCACACUUCAAGGAAUCGUUC [Fam1B.1 aminoacylation ribozyme variant]	0.611	0.649	0.582	0.464	0.695	0.495
CCACACUUCAAGGAGUCGGUC [Fam1B.1 aminoacylation ribozyme variant]	1.13	1.1	0.756	0.92	0.878	1.06
CCACACUUCAAGUAACCGGUC [Fam1B.1 aminoacylation ribozyme variant]	1	0.968	0.767	0.957	0.824	1.05
CCACACUUCAAGUAAGCGGUC [Fam1B.1 aminoacylation ribozyme variant]	0.885	0.828	0.452	0.733	0.638	0.811
CCACACUUCAAUCAAUCCGUC [Fam1B.1 aminoacylation ribozyme variant]	0.823	0.655	0.663	0.61	0.611	0.641
CCACACUUCAAUCAAUCGGUU [Fam1B.1 aminoacylation ribozyme variant]	1.21	1.47	7.61	1.34	5.87	1.16
CCACACUUCACGCAAUCGGAC [Fam1B.1 aminoacylation ribozyme variant]	1.17	1.07	0.401	1.07	1.24	1.15
CCACACUUCAGGCAAUCGGAC [Fam1B.1 aminoacylation ribozyme variant]	1.54	1.4	0.822	1.45	1.45	0.999
CCACACUUCAGGGAAUCGGUC [Fam1B.1 aminoacylation ribozyme variant]	1.46	1.5	0.965	1.45	1.7	1.46
